Data: PMC7862700
Only a part is listed here, and it is no random draw. For part of these data: At the low end of the ranking the order means little. The list shows a part of the results. For part of these data: Construct or isoform of the protein are uncertain.

Protein sequences, listed by entry. Tags and fused reporters are not part of them. Lines headed by an entry give the natural chain unless they say otherwise; changes in a name come on top.
UniProt Q00613: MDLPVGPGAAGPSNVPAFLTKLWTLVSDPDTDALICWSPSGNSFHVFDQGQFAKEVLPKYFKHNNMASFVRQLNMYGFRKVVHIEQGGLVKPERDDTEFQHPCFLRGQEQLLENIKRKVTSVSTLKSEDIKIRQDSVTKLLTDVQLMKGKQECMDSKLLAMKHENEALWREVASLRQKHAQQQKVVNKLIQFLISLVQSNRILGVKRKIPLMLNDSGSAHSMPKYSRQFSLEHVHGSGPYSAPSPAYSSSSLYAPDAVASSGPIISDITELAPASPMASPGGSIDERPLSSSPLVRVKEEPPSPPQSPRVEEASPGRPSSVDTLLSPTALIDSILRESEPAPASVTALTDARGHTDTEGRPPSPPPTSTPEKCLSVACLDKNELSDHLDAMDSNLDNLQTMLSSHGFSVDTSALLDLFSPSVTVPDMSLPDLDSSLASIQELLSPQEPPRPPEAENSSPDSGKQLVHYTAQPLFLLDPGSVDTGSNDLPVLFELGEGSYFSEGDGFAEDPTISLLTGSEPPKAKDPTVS

Key:
[1] = biological target: HSF1 (UniProt Q00613); assay: DAPPL (digital affinity profiling via proximity ligation, sequencing); conditions: 10 mM Tris-HCl pH 7.5, 50 mM NaCl, 1 mM DTT, 4% glycerol, room temperature, 30 min; GST-TFs on glutathione beads, 16-mer random dsDNA library, 0.1% …; high values mean tight binding; double strand, one strand shown; scale: fold enrichment (6-mer frequency, TF over GST control)
[2] = biological target: T1, ELF2 (UniProt Q15723); assay: as above; conditions: 10 mM Tris-HCl pH 7.5, 50 mM NaCl, 1 mM DTT, 4% glycerol, room temperature, 30 min; GST-TFs on glutathione beads, 16-mer random dsDNA library, 0.1% …; high values mean tight binding; double strand, one strand shown; scale: fold enrichment (6-mer frequency, TF over GST control)
T1 sequence: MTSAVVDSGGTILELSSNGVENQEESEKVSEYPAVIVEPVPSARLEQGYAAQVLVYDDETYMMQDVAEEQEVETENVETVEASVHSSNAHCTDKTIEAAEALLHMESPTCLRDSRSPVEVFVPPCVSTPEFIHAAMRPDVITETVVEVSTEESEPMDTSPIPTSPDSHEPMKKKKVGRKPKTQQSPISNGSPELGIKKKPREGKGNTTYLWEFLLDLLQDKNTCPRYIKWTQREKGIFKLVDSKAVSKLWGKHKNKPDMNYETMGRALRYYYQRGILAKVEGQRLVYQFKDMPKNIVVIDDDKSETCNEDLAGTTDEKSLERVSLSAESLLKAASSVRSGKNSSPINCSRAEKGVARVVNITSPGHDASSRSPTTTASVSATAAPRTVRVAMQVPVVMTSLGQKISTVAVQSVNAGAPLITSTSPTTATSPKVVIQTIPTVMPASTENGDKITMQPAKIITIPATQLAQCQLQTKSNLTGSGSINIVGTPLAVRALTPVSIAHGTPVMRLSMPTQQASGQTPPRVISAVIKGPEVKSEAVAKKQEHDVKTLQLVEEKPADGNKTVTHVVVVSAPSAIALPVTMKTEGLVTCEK

Sequence	binding signal [1]	binding signal [2]
ACGACT	1.2	1.24
ACGTCA	0.757	0.939
GTACCT	0.985	1.17
CCGCCA	0.994	1.3
GTGTCC	0.684	1.04
CTAGGC	1.22	1.04
ATGGTG	0.834	1.1
AGAAGA	1.68	0.924
GCCATT	0.76	0.95
CCATCC	0.97	1.28
GCTGCC	0.869	1.04
AAGGCT	1.1	0.999
GCAATT	0.969	1.16
ATCCCA	1.34	1.09
GAATTG	1.06	1.14
TCACTC	1.11	1.15
GATATG	0.853	1.12
CAAGCC	0.848	0.907
GCCCCA	0.863	0.956
CCAAAG	0.962	0.937
GCCTGT	0.741	0.864
AGTAAC	0.827	1.06
TTACCT	1.45	1.22

Sequence	binding signal [1]	binding signal [2]
CTATCG	1.17	1.01
TGTCAT	0.963	1.1
AATATT	1.93	1.41
CGTTGG	0.797	0.884
CTGTTG	0.9	1.07
TCCGGT	1.09	4.89
GGATAC	0.667	1.03
AAATAA	1.48	1.46
GCTAGG	0.994	0.889
TCCGTT	0.999	1.53
TGTCCC	0.984	1.23
CGGAAC	0.685	1.61
ACTCGT	1.14	1.16
ACCCCC	0.88	1.13
TCATAG	0.93	0.865
GGTTAC	0.751	0.938
CCGCGC	0.913	1.14
TGATCA	1.08	0.939
AGAACC	1.55	0.936
TCTCGT	2.01	1.13
ACACTC	0.993	1.04
CATAAA	1.07	0.986
CACCAA	0.893	0.997

Sequence	binding signal [1]	binding signal [2]
GTGGCC	0.703	0.972
AAGCGG	0.911	1.29
GGAAGT	0.691	4.79
TTTACC	1.25	1.23
TCGTCA	0.908	0.967
TGTTCC	1.85	2.19
CTGTGC	0.898	1.08
TCAATT	1.1	1.17
TTTGGA	1.48	1.11
CTATCC	1.25	1.38
ATAGGC	0.932	0.973
GAACAA	1.5	1.24
ACGGAA	1.01	2.53
TCTCCA	1.91	1.39
CTGCAG	0.983	1.07
CGTACG	0.892	1.01
AATCTT	2.17	1.33
TGACAT	1.01	1.2
CCGAAC	1.54	1.17
TTGCCA	1.01	1.03
TGGGAC	0.761	0.872
TGCGGT	0.798	0.934
ACTACG	1.09	1.27

Sequence	binding signal [1]	binding signal [2]
GGTTCA	0.916	1.08
ATTTGT	1.33	1.31
ACTGTA	0.905	0.994
CACGTT	1.11	1.24
GGTAAT	1.27	1.09
CAGACT	1.06	0.993
CATAGT	0.935	0.967
TGACAA	1.06	1.16
GGGCTC	0.92	1.14
TGAAAG	1.08	0.961
GCCCAT	0.819	0.953
TTGTAA	1.4	1.24
TAAGGA	0.944	0.985
CGCTTG	0.906	1
TAGATC	1.49	1.01
CAAAAG	0.991	0.957
CAGCGC	0.843	0.944
GGCCTT	1.05	1.11
AGTACA	0.893	1.17
TATGGG	1.1	1.1
ACTGTT	1.03	1.14
TCCAGC	1.44	0.922
CACACA	0.962	1.12

Single records, as listed above:
GGCCTT is listed with binding signal [1] = 1.05; binding signal [2] = 1.11
TCCAGC is listed with binding signal [1] = 1.44; binding signal [2] = 0.922

For reference, part of the list above.
Sequence	binding signal [1]	binding signal [2]
CAGCGC	0.843	0.944
GGCCTT	1.05	1.11

The list continues.

Sequence	binding signal [1]	binding signal [2]
CAAACT	0.992	1.13
GTTGAA	0.711	0.794
GTTTAT	1.14	1.08
AGTACG	0.754	0.979
CGCCAA	0.89	0.981
TGAGCT	1.06	0.988
ACTATG	1.09	1.14
CACATC	0.883	1.49
TTCCCG	2.46	2.27
TCGAAC	2	0.995
TAACGC	1.28	1.12
AACCAC	0.997	1.14
CACCTA	0.93	0.937
TCACGG	0.861	1.09
CCGGCG	0.68	0.922
AGGTTT	1.04	0.977
TTTATC	1.65	1.26
AGCATA	1.04	0.93
GCCCCC	0.837	1.07
CGCCTA	1.15	1.16
CCACAT	0.976	1.2
TGACGC	0.969	1.12
